Source: patent publication US20080299114A1
No constants are given. Whether binding was seen depends on the method and setting. Some binding calls cover weakened binding; strength is not graded here.

Protein sequences, listed by entry. Tags and fused reporters are not part of them. Lines headed by an entry give the natural chain unless they say otherwise; changes in a name come on top.
UniProt P00751: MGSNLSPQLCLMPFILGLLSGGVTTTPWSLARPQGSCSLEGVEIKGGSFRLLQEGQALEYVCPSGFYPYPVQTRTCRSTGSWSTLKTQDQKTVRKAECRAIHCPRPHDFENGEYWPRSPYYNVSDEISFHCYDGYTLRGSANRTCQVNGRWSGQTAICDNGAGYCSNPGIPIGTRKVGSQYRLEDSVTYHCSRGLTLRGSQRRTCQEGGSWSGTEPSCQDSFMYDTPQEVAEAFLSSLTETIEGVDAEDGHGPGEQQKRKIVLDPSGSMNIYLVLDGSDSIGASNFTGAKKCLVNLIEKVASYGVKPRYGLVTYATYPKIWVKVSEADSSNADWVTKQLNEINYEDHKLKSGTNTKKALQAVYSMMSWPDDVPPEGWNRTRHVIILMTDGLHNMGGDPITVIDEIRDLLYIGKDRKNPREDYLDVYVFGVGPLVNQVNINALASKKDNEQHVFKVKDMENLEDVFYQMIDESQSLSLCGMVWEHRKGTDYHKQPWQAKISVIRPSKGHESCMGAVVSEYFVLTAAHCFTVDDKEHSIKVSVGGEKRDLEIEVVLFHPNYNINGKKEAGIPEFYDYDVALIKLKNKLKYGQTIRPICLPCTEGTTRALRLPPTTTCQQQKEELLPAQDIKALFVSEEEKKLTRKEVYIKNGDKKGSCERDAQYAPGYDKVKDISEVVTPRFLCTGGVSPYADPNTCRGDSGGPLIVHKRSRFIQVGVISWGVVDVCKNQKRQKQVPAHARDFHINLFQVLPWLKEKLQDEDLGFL

How the values were obtained:
[1] = target: recombinant human factor B (human) (UniProt P00751); experiment: dilution ELISA on factor B
[2] = target: recombinant human factor B (human) (UniProt P00751); experiment: ELISA

B1: cloned Fab′ TA003 (Fab, V domains shown)
VH: EVQLQQSGPELVKPGASVKIPCKASGYTFTDYNMDWVKQSHGKSLEWIGDINPNNGGTIYNQKFKGKATLTVDKSSSTAYMELRSLTSEDTAVYYCARGYYSNSAWFAYWGQGTLVTVSA
VL: DIVMSQSPSSLAVSAGEKVTMSCKSSQSLLNSRTRKNYLAWYQQKPGQSPKLLIYWASTRESGVPDRFTGSGSGTDFTLTISSVQAEDLAVYYCKQSYNLPWTFGGGTKLEIKR
- binding [1]: binds
- binding [2]: binds
